Data source: PubChem BioAssay AID504774 (Drosophila RNAi Screening Center, 2011)
Test: 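Genes required for cells to withstand methyl methanesulphonate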 (primary screen). System: Drosophila Kc167 cells. Reagents: long dsRNA against Drosophila genes, about 0.25 µg dsRNA per well. Time to read-out: about 6 days: 3 days knock-down, then 3 days with or without MMS. Challenge: methyl methanesulphonate 0.004% (w/v) for 3 days after knock-down. Detection: 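Viability in wells given MMS, read as ATP luminescence, normalised by quantiles plate by plate and averaged across replicates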. Reading the numbers: mean viability with MMS and viability with MMS: higher = more surviving cells after MMS.
In all, the deposit lists about 23,000 reagents; this is an unselected part of those that have a named target and a result. 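Values are quantile-normalised luminescence on an arbitrary scale; higher means more cells surviving MMS.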 No sequences are given here.

| gene | amplicon | mean viability with MMS | viability with MMS, replicate 1 | viability with MMS, replicate 2 |
| --- | --- | --- | --- | --- |
| Ir94e | DRSC15229 | 3.61e6 | 4.08e6 | 3.97e6 |
| Ent3 | DRSC09822 | 3.44e6 | 3.82e6 | 4.00e6 |
| Spf30 | DRSC11976 | 3.31e6 | 3.69e6 | 3.77e6 |
| bdwf | DRSC15532 | 3.52e6 | 3.98e6 | 4.00e6 |
| CG11384 | DRSC18628 | 3.43e6 | 3.79e6 | 4.00e6 |
| Dph5 | DRSC16653 | 3.43e6 | 3.91e6 | 3.88e6 |
| cv-2 | DRSC03861 | 3.64e6 | 4.09e6 | 4.14e6 |
| cv-2 | DRSC04261 | 3.60e6 | 4.18e6 | 3.99e6 |
| Irbp | DRSC17007 | 3.71e6 | 4.14e6 | 4.13e6 |
| Irbp | DRSC23317 | 3.93e6 | 4.48e6 | 4.36e6 |
| CG17999 | DRSC04300 | 3.63e6 | 4.05e6 | 4.22e6 |
| pic | DRSC16639 | 3.42e6 | 3.83e6 | 3.88e6 |
| CG8475 | DRSC03091 | 3.60e6 | 3.99e6 | 4.19e6 |
| CG12502 | DRSC08281 | 3.45e6 | 3.86e6 | 3.97e6 |
| CG12502 | DRSC23247 | 3.16e6 | 3.81e6 | 3.21e6 |
| RpL7 | DRSC03417 | 2.87e6 | 3.49e6 | 3.48e6 |
| CG11269 | DRSC04094 | 3.44e6 | 3.97e6 | 3.80e6 |
| porin | DRSC03594 | 3.54e6 | 4.20e6 | 3.85e6 |
| SWIP | DRSC19540 | 3.48e6 | 3.98e6 | 3.90e6 |
| CstF50 | DRSC15434 | 3.43e6 | 3.99e6 | 3.80e6 |
| hng1 | DRSC04555 | 3.73e6 | 4.35e6 | 4.14e6 |
| TMEM216 | DRSC16378 | 3.69e6 | 4.15e6 | 4.18e6 |
| Efr | DRSC18322 | 3.43e6 | 3.84e6 | 3.95e6 |
| CG10764 | DRSC06000 | 3.75e6 | 4.19e6 | 4.29e6 |
| CG17752 | DRSC15262 | 3.51e6 | 3.76e6 | 4.19e6 |
| Set1 | DRSC20930 | 3.40e6 | 3.83e6 | 3.86e6 |
| Set1 | DRSC20931 | 3.28e6 | 3.77e6 | 3.77e6 |
| CG34056 | DRSC08374 | 3.55e6 | 3.89e6 | 4.14e6 |

No new results follow: an excerpt of the list.
| gene | amplicon | mean viability with MMS | viability with MMS, replicate 1 | viability with MMS, replicate 2 |
| --- | --- | --- | --- | --- |
| CG11269 | DRSC04094 | 3.44e6 | 3.97e6 | 3.80e6 |
| porin | DRSC03594 | 3.54e6 | 4.20e6 | 3.85e6 |
| SWIP | DRSC19540 | 3.48e6 | 3.98e6 | 3.90e6 |
| CstF50 | DRSC15434 | 3.43e6 | 3.99e6 | 3.80e6 |
| hng1 | DRSC04555 | 3.73e6 | 4.35e6 | 4.14e6 |
